At least one structure is not confirmed: it was looked up by name or label, or the drawing left a doubt.
Legend:
Type in all cases: cell-based, human
[1] = tested on: NK-92-mediated cytolysis of A549 cells; assay: Inhibition of NK-92-mediated cytolysis by signaling pathway inhibitors (RT-CES); details: NK-92 pre-incubated with inhibitor, E/T 16:1
Description: Cytolytic analysis. Target cells were seeded into the wells of either 16-well or 96-well E-plate in 100 μL of media. Cell growth was dynamically monitored using the RT-CES system for a period of 24-34 hours, depending on the experiment until they reached log growth phase and formed a monolayer. Effector cells at different concentrations were then directly added into individual wells containing the target cells. For background control, effector cells were added to a well without target cells. After addition of the effector cells, the E-plate was returned to the e-plate station and the measurements were automatically collected by the analyzer every 15 minutes for up to 20 hours.
Data analysis. The integrated software is able to display entire history of the experiment from seeding the cells to termination of cytolysis. […] The cell index here is determined by calculating, for each measurement frequency f, the relative-change (Relative change (f)=(Rcell (f)−Rbackground(f))/Rbackground(f)) in resistance (a component of impedance) of a well when target cells are present in the well (Rcell (f)) with respect to background resistance (Rbackground) of the well when no cell is present and only cell culture medium is in the well, and then finding the maximum relative-change in resistance for all frequencies measured (Cell Index=max {Relative change (f)} for all measurement frequencies). […]

A549 cells [2] = assay: A549 target cells incubated with inhibitors alone (RT-CES control); details: A549 target cells without NK-92
From the text: Inhibition of NK-mediated cytolysis of target cells by agents which block the signaling pathways leading to cytotoxicity. The interaction of NK receptors at the cell membrane by target cells leads to the activation of signal transduction machinery which results in cytolysis of target cells (Vivier et al., 2004). One of the key signaling cascades which regulate the fusion of perforin and granzyme containing secretory granules at the NK/target cell synaptic junction is the phosphatidyl-inositol-3-kinase (PI3K), Rac and mitogen activated protein kinase 1 (Erk) pathway (Djeu et al., 2002; Vivier et al., 2004). In order to determine the specificity of the signaling pathways in regulating NK-mediated cytotoxicity, we therefore sought to utilize specific inhibitors of the PI3K and Erk pathways. NK-92 cells were incubated with both the PI3K inhibitor Wortmannin and the Erk pathway inhibitor PD98059 or DMSO as a control and then added to A549 target cells. […] We calculated percent inhibition of cytolysis for both inhibitors at different time points after NK addition. […] In summary, the experiments shown here clearly establish that the RT-CES system can be used to monitor NK-mediated cytotoxic activity against a variety of different cell lines.

A549 cells [3] = assay: RT-CES dynamic monitoring of drug interaction with target cells; details: exponentially growing A549 cells, 100 μM
Description: Drug Treatment and Cytotoxicity Assessment.
In order to observe the kinetics of drug interaction with target cells, A549 non-small lung cancer cells were seeded in ACEA 96× E-plate™ and continuously monitored until the cells reached the log growth phase at which point different concentrations of paclitaxel were added to the cells at the indicated final concentration. […] While it remains to be determined if this phenomenon is due to metabolism and inactivation of paclitaxel or due to the emergence of paclitaxel-resistant subpopulation, this experiment clearly exemplifies the tremendous advantage of real-time measurement which is offered by the RT-CES system and allows the user to the opportunity to observe and assess the entire history of drug interaction with the target cells which provides further information in addition to cell viability or cytotoxicity. The phenomenon observed in FIG. 20A would've been easily missed by traditional single-point assays such as MTT.
Yet another major advantage of using the RT-CES system to continually monitor the interaction of drugs with target cells is that the user can obtain insight into the mechanism of action of the drug of interest. […]

A549 cells [4] = assay: Flow cytometry cell cycle analysis; details: 100 μM

COC[C@H]1OC(=O)c2coc3c2[C@@]1(C)C1=C(C3=O)[C@@H]2CCC(=O)[C@@]2(C)C[C@H]1OC(C)=O [Wortmannin]
effect on NK-92-mediated cytolysis of A549 cells [1]: dose-dependently inhibited | effect of inhibitor alone on A549 baseline (A549 cells [2]): minimal effect on the baseline

Cn1cnc2c(NCc3ccccc3)nc(NCCO)nc21 [Olomoucine]
Cell Index trace after addition (A549 cells [3]): level off and remain in a steady state | cell cycle effect by flow cytometry (A549 cells [4]): induces cell cycle arrest at the G2→M transition

— US12066428B2, “Cell-substrate impedance monitoring of cancer cells” (Agilent Technologies, Inc., priority 2016, dated 2024)
